Measured values taken from article PMC5814585, “Modulators of actin-myosin dissociation: basis for muscle type functional differences during fatigue” (American Journal of Physiology - Cell Physiology, 2017).

Tested on: actin.PsoS1
Conditions: psoas

SMILES: O=P(O)(O)O [Pi, inorganic phosphate]
- KPi tighter at pH 6.2 than at pH 7.0: 30%
